According to US20190350938A1 (BROAD INSTITUTE, published 2019):
Results are given in words; binding and its absence hold for the method and conditions named. In cells and extracts the contact can be indirect. Here binding means that the protein was enriched with, or labelled near, the bait; the list need not be complete. Where a sequence is shown, tags or fusion partners need not be part of it.

Target: T1, P2D SLC16A11^REF-V5 (human, UniProt Q8NCK7 1-447)
T1 construct: bait of the proteomics study; also called P2D WT SLC16A11; WT SLC16A11
T1 sequence: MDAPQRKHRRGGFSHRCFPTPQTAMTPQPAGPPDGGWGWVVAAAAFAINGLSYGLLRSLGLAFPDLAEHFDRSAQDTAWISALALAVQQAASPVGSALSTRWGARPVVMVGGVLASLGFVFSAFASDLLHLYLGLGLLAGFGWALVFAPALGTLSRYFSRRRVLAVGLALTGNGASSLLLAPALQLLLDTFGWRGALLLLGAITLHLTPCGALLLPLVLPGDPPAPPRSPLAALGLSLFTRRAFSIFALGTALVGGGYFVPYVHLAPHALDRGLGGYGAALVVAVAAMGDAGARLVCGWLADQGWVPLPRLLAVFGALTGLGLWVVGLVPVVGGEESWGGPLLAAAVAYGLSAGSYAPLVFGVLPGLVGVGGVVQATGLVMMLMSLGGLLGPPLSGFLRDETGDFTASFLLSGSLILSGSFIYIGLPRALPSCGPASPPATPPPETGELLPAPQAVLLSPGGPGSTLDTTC
Test: IP of P2D WT SLC16A11 vs control IP, quantitative mass spectrometry (FIG. 5B top right)

B1: Basigin (other, human, UniProt P35613-2 22-269, looked up)
chain: AAGTVFTTVEDLGSKILLTCSLNDSATEVTGHRWLKGGVVLKEDALPGQKTEFKVDSDDQWGEYSCVFLPEPMGTANIQLHGPPRVKAVKSSEHINEGETAMLVCKSESVPPVTDWAWYKITDSEDKALMNGSESRFFVSSSQGRSELHIENLNMEADPGQYRCNGTSSKGSDQAIITLRVRSHLAALWPFLGIVAEVLVLVTIIFIYEKRRKPEDVLDDDDAGSAPLKSSGQHQNDKGKNVRQRNSS
modifications: glycosylated (runs as multiple bands)
notes: Endogenous protein co-precipitated from HEK293T lysate; also called BSG; endogenous BSG
- binding: binds
